Consider seven molecules from patent US20160075790A1 (Bristol-Myers Squibb, published 2016).

Chains of the proteins cited; added tags and fusions are not shown. Lines headed by an entry give the natural chain unless they say otherwise; changes in a name come on top.
UniProt P29965: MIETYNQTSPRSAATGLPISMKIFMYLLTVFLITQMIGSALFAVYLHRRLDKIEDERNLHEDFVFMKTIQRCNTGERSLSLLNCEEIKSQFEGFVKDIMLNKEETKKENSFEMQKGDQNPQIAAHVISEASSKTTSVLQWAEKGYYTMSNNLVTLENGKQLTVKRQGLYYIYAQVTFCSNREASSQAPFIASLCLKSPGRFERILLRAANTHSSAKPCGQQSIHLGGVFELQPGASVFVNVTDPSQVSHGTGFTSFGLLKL

Positions count from the first letter of the chain named. These are yes or no findings as the source states them, for the method shown. Some entries that bind do so weakly or less than the wild type. Sequences can lack the tags named with a protein.

This assay deals with human isoleucine zipper-CD40L (IZ-hCD40L) (human) (UniProt P29965). Nature of the assay: SPR; captured on anti-human IgG Fc surface, IZ-hCD40L as analyte. (In general: Surface plasmon resonance follows binding to a sensor surface in real time, without labels.)

B1: 2h572-635-CT Long Fc (Fc fusion)
chain: EVQLLESGGGLVQPGGSLRLSCAASGFTFNWELMGWARQAPGKGLEWVSGIEGPGDVTYYADSVKGRFTISRDNSKNTLYLQMNSLRAEDTAVYYCVKVGKDSKSDYRGQGTLVTVSS
notes: not shown: linker and CT Long Fc (CT-L2)
Regarding B1, the binding entry is “binds”.

B2: 2h572-619-Ctlong Fc (Fc fusion)
chain: B1 chain with E32Q, A37V, K104R
notes: as for B1
B2: the binding result is “binds”.

B3: 2h572-634-CT Long Fc (Fc fusion)
chain: B1 chain with K104R
notes: as for B1
For the molecule B3, the binding entry is on record as “binds”.

B4: 2h572-608-CT Long Fc (Fc fusion)
chain: B1 chain with D102E, K104N
notes: as for B1
On to B4, for which the binding result is recorded as “binds”.

B5: 2h572-633-CT Long Fc (Fc fusion)
chain: B1 chain with S103A
notes: as for B1
As for B5, the binding entry is “binds”.

B6: 2h572-6-CT Long Fc (Fc fusion)
chain: B1 chain with E32Q, A37V, D102E, K104N
notes: as for B1
Regarding B6, the binding result is “binds”.

B7: 2h572-614-CT Long Fc (Fc fusion)
chain: B1 chain with E32Q, A37V, S103A
notes: as for B1
Turning to B7, the binding result is recorded as “binds”.
